Among all 53,000 sequences or so, about 3,700 (7%) were called active.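 How the source made its calls: active means gene knockdowns whose robust z-score for IL-1 alpha signal is at least 2 or at most -2, so actives lie on both sides; inactive means the rest.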 The list shows a part of the results.

The nature of the assay: Components of the Cytosolic LPS Sensing Pathway: Gene Identification via Genome-wide siRNA Screen.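 Further: robust z of the log signal after scaling to non-targeting control siRNA wells of the plate.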 The settings on record: RAW264.7 macrophages, IL-1a HTRF, actives lie on both sides, screened at 100 nM (by protocol), cells primed 5 h with Pam3CSK4 first. Summed up:
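Knockdown: 100 nM siRNA, 48h, RAW264.7. Stimulation: Pam3CSK4 5 h, then LipidA via TransIT-TKO 24 h. Output: supernatant IL-1a HTRF, negative-control-normalized, log robust z-score; viability by CellTiter-Glo.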
In general terms: In TR-FRET formats the signal depends on donor and acceptor labels being close together.
Turning to GGAUAACCUUAACUUCUGATT against Usp48, the z-score was inactive: 0.625.
With GGACUCCUAAUGAAUAAUCTT against Wee2, the z-score is active: 2.06.
In the case of CCUCGUUCCUAUCAUUAACTT against Sdccag8 it was inactive: 0.58; in that of CCAAGUAUUUUUCUCCUUATT against Stk38, inactive: 1.69.
On to UCUCCUUCAUUCCAUGCCUTT against Olfr237, for which the z-score is inactive: -1.06.
In the case of GGAAAAGGUUAAGAAAGCATT against Krr1 it was active: -2.53; in that of GGGUCCAUUGUCAAUGUCUTT against Cbr2, inactive: -1.92; in that of GGUCUUCCUGUUCUUGCUCTT against Olfr1009, inactive: 0.115.
For the sequence GGAAACUGUGGAUGAAAAGTT against Olfr1230, the z-score is inactive: 0.266.
Turning to CCAAGUACCCUGAGAGUUUTT against Pnpla6, the z-score is inactive: 1.46.
In the case of GGUGAAAGACACUUGAAUUTT against Cdk2 it was inactive: 0.625; in that of GGUCCGAGAGACAUUGGCATT against Lmx1b, inactive: -0.118; in that of GGAAAUAAGCAGCGCAUGCTT against Ippk, inactive: -1.27.
In the case of “GCCGGUUGGAACAAAAGGCTT against E130018O15Rik” it was inactive: 0.993; in that of GGACUUGAAGCUGCACCUATT against Atp6v0d1, inactive: -0.343; in that of GGACAUUUUUGUCUCUAAATT against Pacc1, inactive: 0.167.
For the sequence CCCUAUACUCAUUUGUAAGTT against Ube2a, the z-score is inactive: 0.68.
Take CGUAACAAGCAGGAAGCAATT against Xlr4b: the z-score is inactive: -0.467.
Take GGAGAGGAUCCAAUGUCUCTT against Ptpn5: the z-score was inactive: 1.86.
In the case of GGCUAUACACGCAUCAAGCTT against Dtx1, the z-score is inactive: 0.667.
With GCGACAAGACUUCUUGAGCTT against Epha8, the z-score is inactive: -0.304.
Under CCAAAGCACAGCAAUUAAUTT against Eif3a stands inactive: -0.836; under CCAAACGGAAGUAUCUUAUTT against Tmem128, inactive: 0.246; under GGCCUUCGAAAUAAUUCUGTT against Ppp1r14d, inactive: -0.605.
As for GCAUCGUCUAUAUUUUUGGTT against Timm50, the z-score is inactive: -1.56.
Regarding GGACUUCAUGGAAAAUCUGTT against Pofut1, the z-score was inactive: -0.656.
GGAUGAGUCUUUAGAAGAATT against Pramel25: the z-score is inactive: 0.468.
For the sequence CGAGCUGUCCAAACACUGUTT against Cenpu, the z-score is inactive: -0.135.
Regarding CCAUGGGUACCUAUAUCGUTT against Gfod2, the z-score is inactive: -0.622.
GGAUUUGUCUUCUUUUGUCTT against Kif3b: the z-score is inactive: 1.58.
In the case of GGUGUGGUACGACAUGUUCTT against Zmat5 it was inactive: -0.641.
Consider GCAUGGAGAUUCUGUGCGGTT against Trim45, for which the z-score was inactive: -1.13.
GGCAAUUGUACAGGAGAUUTT against Iqcc: the z-score was inactive: 0.98.
As to GGACAUAAAAAUACGCCAGTT against Hsf1, the z-score was inactive: -1.38.
Turning to CGCCGAAAGACAAGAGUAUTT against Tgm3, the z-score is inactive: -0.847.
With GGUAUGUUUGCAUCUUUUUTT against Nkain3, the z-score is inactive: 0.194.
Under GGAGCUCAGAUGCAAUGAGTT against Klf17 stands inactive: 0.517.
In the case of GGAGAACAUAAAAAUGGUGTT against Stk39 it was inactive: -0.0786; in that of GCUUUCUUUUAUGGCACGGTT against Tmem86b, inactive: -0.396; in that of GGAAGGUUCCCUUGAGUUCTT against Bcdin3d, inactive: -0.202.
As to GCGGUCCAGACAGCAAAUATT against Ptbp2, the z-score is inactive: 0.42.
Consider CCACGGAGCAGAUAUGCUGTT against Nprl3, for which the z-score is inactive: -1.22.
In the case of GGCCGUUUCCUACCUCAUGTT against Cckbr it was inactive: -1.09.
Consider GGAUAGUCUCCUCAAAGAATT against Trmt10b, for which the z-score was inactive: 0.7.
For GGAAAACUUCACUUUCUUCTT against Esyt2, the z-score was inactive: 0.673.
For the sequence GGACACUAUGCAAUCACCCTT against Rnf216, the z-score is inactive: -0.481.
Take CCGACCAGAAGCUUUAAAGTT against Msrb1: the z-score was inactive: 1.05.
With GGAGUUCCUCAUGAAGAUGTT against Tmem241, the z-score was inactive: -1.27.
In the case of GGCUGUCAGAACCAACUACTT against Tshb, the z-score was inactive: 0.214.
With CCAUACAUCCGAGAGUUUGTT against Snrnp70, the z-score is active: 2.37.
In the case of “GCUUUACCUGGAGAAAAUGTT against 4931422A03Rik”, the z-score is inactive: -1.44.
With GGAGUUUUUGCAUGAAUUGTT against Folh1, the z-score is inactive: -0.106.
Under GGGAAAAGCUAAAAUACAATT against Gtf2h1 stands inactive: 1.54.
Take GGUGCUGAGCAAUCUCAAGTT against Slc35a4: the z-score was inactive: 0.834.
Take GCCCUCUACAACUUUGACCTT against Sh3rf2: the z-score was inactive: 0.664.
Regarding GGAAGAAAAAGAGGACACATT against Wnk4, the z-score is inactive: -0.393.
Turning to GGACUAUCUCUUUAUGGAATT against Csf1, the z-score was inactive: -0.0449.
On to CGUCAUGACAAACUUAGGATT against Calm1, for which the z-score was inactive: -1.14.
As to GGAUUGUCAUAACAGAAUUTT against Rpe65, the z-score was inactive: -0.344.
Turning to CCAAAGCUGAGGUUGUAACTT against Sstr4, the z-score is inactive: 0.642.
Regarding GGAUUCUGGAGAAUAUGAATT against Tgm5, the z-score was inactive: 1.03.
GGAUCAGAUGUCAGCUUCATT against Stx6: the z-score was inactive: -1.03.
In the case of GGUUUUUACAAUCAUGAUGTT against Fer, the z-score was inactive: -0.692.
For the sequence CCUAUGAUGUAAUGACCCGTT against Slc25a29, the z-score was inactive: -1.19.
Regarding GGAUUGGAAGAAAAAGGAGTT against Lair1, the z-score was inactive: -1.38.
Turning to GGUCAAAGCAAGAAGAUGATT against Septin9, the z-score is inactive: -1.34.
Turning to GGAUCGACUGCCAAGGAAUTT against Klhdc2, the z-score is inactive: 0.0628.
Consider CCAGUGGUUGCUAUGGUCUTT against Nme1, for which the z-score is inactive: -0.13.
